The other results are listed elsewhere or left out. Potency and affinity values are given separately.

The subject of the test is Pseudomonas aeruginosa. Conditions: Concentration 32 ug.mL-1; ASSAY_TEST Inhibition of Bacterial Growth; detection method Absorption (OD600); MEDIA CAMHB; plate type 384well; NBS; CORNING #3640; time 18 hr.
In general, Inhibition refers to the drop in the measured response relative to a control, in per cent. In the case of `CCOP(=O)(OCC)C(Cc1cn(Cc2cnc(C)nc2N)nn1)C(=O)O.O=C(O)C(F)(F)F` (stereo unspecified), the Inhibition is -21.05%.

The values are drawn from ChEMBL document CHEMBL4513139, “CO-ADD screening of University of Strathclyde (UK) compounds”.
